Results deposited as PubChem BioAssay AID743121 (NCATS, 2013)

Aim: 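Partners whose loss is lethal together with topoisomerase I blockade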 (primary screen)
Cell system: MDA-MB-231 cells, a human breast cancer line
Knock-down reagent: single siRNA against human genes, 20 nM siRNA (0.8 pmol per well)
Duration: 120 h (drug added 48 h after transfection, read 72 h later)
Treatment: camptothecin 20 nM (about EC30) for 72 h; vehicle 0.1% DMSO in parallel plates
Detection: 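Cell viability by ATP luminescence (CellTiter-Glo) as % of non-targeting siRNA wells, and the log2 ratio of viability without drug over viability with camptothecin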
Scale: log2 vehicle/camptothecin viability: higher = stronger sensitisation to camptothecin; viability with camptothecin: higher = more viable cells
Active means: 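Each gene scored by redundant siRNA activity (RSA) over its individual siRNA ratios; a gene is called active at p < 0.001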
This is an unselected part of about 26,000 reagents. 167 of them (0.63%) count as active. 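Calls are per gene from RSA p-values that are not deposited; an individual active-marked siRNA can sensitise only weakly.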 Unmarked entries are inactive. The numbers tell different reagents against one gene apart. Further read-outs or replicates are left out here. Reagent sequences are not shown.

The first 2 records, to show the layout:
SIRT1 #1
- log2 vehicle/camptothecin viability: 0.132
- viability with camptothecin (% of control): 103

SIRT1 #2
- log2 vehicle/camptothecin viability: 0.688
- viability with camptothecin (% of control): 42.2

Main list, from the first entry:
SIRT1 #1
- log2 vehicle/camptothecin viability: 0.132
- viability with camptothecin (% of control): 103

SIRT1 #2
- log2 vehicle/camptothecin viability: 0.688
- viability with camptothecin (% of control): 42.2

SIRT1 #3
- log2 vehicle/camptothecin viability: -0.0918
- viability with camptothecin (% of control): 115

SIRT1 #4
- log2 vehicle/camptothecin viability: -0.447
- viability with camptothecin (% of control): 65.5

SNX13 #1
- log2 vehicle/camptothecin viability: 0.0473
- viability with camptothecin (% of control): 88.2

SNX13 #2
- log2 vehicle/camptothecin viability: -0.497
- viability with camptothecin (% of control): 101

SNX13 #3
- log2 vehicle/camptothecin viability: 0.108
- viability with camptothecin (% of control): 90.3

SNX13 #4
- log2 vehicle/camptothecin viability: -0.271
- viability with camptothecin (% of control): 132

SRPRA #1
- log2 vehicle/camptothecin viability: -0.351
- viability with camptothecin (% of control): 49.4

SRPRA #2
- log2 vehicle/camptothecin viability: -0.621
- viability with camptothecin (% of control): 94.1

SRPRA #3
- log2 vehicle/camptothecin viability: -0.553
- viability with camptothecin (% of control): 78

GUCY2F #1
- log2 vehicle/camptothecin viability: -0.293
- viability with camptothecin (% of control): 55.8

GUCY2F #2
- log2 vehicle/camptothecin viability: -0.0357
- viability with camptothecin (% of control): 90

GUCY2F #3
- log2 vehicle/camptothecin viability: 0.278
- viability with camptothecin (% of control): 88.5

GUCY2F #4
- log2 vehicle/camptothecin viability: -0.381
- viability with camptothecin (% of control): 56.5

CRK #1
- log2 vehicle/camptothecin viability: -0.288
- viability with camptothecin (% of control): 50.3

CRK #2
- log2 vehicle/camptothecin viability: 0.366
- viability with camptothecin (% of control): 62.8

CRK #3
- log2 vehicle/camptothecin viability: -0.251
- viability with camptothecin (% of control): 57.4

CRK #4
- log2 vehicle/camptothecin viability: -0.733
- viability with camptothecin (% of control): 116

CD4 #1
- log2 vehicle/camptothecin viability: 0.348
- viability with camptothecin (% of control): 26.5

CD4 #2
- log2 vehicle/camptothecin viability: -0.459
- viability with camptothecin (% of control): 80.7

CD4 #3
- log2 vehicle/camptothecin viability: -0.124
- viability with camptothecin (% of control): 100

CD4 #4
- log2 vehicle/camptothecin viability: 0.0121
- viability with camptothecin (% of control): 98.8

MBTPS2 #1
- log2 vehicle/camptothecin viability: -0.476
- viability with camptothecin (% of control): 68.2

MBTPS2 #2
- log2 vehicle/camptothecin viability: -0.283
- viability with camptothecin (% of control): 110

MBTPS2 #3
- log2 vehicle/camptothecin viability: 0.1
- viability with camptothecin (% of control): 100

MBTPS2 #4
- log2 vehicle/camptothecin viability: -0.331
- viability with camptothecin (% of control): 127

PDE1B #1
- log2 vehicle/camptothecin viability: -0.129
- viability with camptothecin (% of control): 85.7

PDE1B #2
- log2 vehicle/camptothecin viability: -0.0987
- viability with camptothecin (% of control): 93.7

PDE1B #3
- log2 vehicle/camptothecin viability: -0.0302
- viability with camptothecin (% of control): 91

PDE1B #4
- log2 vehicle/camptothecin viability: -0.373
- viability with camptothecin (% of control): 80.8

GBE1 #1
- log2 vehicle/camptothecin viability: 0.605
- viability with camptothecin (% of control): 44.9

GBE1 #2
- log2 vehicle/camptothecin viability: 0.358
- viability with camptothecin (% of control): 72.6

GBE1 #3
- log2 vehicle/camptothecin viability: 0.16
- viability with camptothecin (% of control): 103

GBE1 #4
- log2 vehicle/camptothecin viability: -0.118
- viability with camptothecin (% of control): 72.4
